Results: patent publication EP4847511A1, “COMPOUND WITH TRICYCLIC STRUCTURE, PHARMACEUTICAL COMPOSITION THEREOF AND USE THEREOF” (dated 2026)

The chains behind the UniProt entries cited, without tags or fusion partners. Where a name states a change or a piece, a line headed by the entry shows the natural chain unless it says otherwise.
UniProt P42336, whole entry: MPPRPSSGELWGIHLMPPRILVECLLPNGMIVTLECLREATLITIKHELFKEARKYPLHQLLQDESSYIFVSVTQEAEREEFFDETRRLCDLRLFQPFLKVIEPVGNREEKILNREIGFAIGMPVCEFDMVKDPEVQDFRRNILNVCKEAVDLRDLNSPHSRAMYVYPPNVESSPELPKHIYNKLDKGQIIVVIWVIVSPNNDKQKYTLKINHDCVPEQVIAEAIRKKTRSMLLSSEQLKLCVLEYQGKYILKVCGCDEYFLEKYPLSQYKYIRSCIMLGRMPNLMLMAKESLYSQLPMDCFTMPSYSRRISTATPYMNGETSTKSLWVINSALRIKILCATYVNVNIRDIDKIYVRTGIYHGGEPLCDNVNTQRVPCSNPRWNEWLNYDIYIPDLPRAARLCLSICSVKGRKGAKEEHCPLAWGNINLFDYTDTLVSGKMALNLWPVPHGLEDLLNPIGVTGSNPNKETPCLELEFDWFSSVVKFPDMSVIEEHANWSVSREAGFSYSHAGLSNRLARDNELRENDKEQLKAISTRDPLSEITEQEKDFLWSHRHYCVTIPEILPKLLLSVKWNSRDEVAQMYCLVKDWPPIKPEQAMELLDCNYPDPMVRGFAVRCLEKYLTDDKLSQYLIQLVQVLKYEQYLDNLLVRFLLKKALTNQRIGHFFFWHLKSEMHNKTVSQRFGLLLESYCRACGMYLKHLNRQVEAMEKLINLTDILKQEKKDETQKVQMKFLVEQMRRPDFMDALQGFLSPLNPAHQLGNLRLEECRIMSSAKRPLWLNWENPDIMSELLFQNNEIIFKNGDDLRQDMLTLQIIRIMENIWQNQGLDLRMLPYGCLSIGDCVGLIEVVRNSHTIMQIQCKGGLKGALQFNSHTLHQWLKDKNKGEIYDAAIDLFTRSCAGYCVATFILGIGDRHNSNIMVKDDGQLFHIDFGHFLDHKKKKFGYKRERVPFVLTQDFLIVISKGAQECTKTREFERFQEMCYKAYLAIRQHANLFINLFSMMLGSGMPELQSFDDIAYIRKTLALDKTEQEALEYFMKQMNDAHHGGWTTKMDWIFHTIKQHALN
UniProt P42336, whole entry H1047R: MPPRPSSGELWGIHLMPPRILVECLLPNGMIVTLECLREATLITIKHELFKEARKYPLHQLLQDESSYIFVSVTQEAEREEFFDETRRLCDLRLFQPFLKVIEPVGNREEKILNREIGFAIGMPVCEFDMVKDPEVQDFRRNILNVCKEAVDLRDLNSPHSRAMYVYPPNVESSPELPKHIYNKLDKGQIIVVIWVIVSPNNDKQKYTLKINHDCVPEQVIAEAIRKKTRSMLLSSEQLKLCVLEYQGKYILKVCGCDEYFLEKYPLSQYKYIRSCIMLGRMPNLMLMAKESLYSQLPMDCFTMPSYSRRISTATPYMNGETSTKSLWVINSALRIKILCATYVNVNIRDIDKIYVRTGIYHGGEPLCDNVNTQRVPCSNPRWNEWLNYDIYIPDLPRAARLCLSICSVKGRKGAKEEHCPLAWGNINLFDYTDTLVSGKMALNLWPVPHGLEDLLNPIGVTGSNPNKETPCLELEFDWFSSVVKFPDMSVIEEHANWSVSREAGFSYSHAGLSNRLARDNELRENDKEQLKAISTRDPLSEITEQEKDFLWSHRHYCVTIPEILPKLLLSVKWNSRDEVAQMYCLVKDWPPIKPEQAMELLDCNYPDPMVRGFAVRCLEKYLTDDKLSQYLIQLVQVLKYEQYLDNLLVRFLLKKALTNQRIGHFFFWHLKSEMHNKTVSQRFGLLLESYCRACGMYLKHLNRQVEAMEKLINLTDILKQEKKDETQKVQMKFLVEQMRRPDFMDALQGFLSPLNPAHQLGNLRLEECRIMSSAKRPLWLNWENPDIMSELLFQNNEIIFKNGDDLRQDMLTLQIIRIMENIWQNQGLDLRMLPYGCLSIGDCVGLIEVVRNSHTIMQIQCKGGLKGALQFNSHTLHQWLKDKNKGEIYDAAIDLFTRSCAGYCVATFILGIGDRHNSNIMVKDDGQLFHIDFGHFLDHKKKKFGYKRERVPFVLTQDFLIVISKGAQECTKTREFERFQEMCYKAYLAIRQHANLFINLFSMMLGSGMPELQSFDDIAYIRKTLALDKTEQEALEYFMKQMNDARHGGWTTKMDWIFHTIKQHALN
UniProt P27986, whole entry partner: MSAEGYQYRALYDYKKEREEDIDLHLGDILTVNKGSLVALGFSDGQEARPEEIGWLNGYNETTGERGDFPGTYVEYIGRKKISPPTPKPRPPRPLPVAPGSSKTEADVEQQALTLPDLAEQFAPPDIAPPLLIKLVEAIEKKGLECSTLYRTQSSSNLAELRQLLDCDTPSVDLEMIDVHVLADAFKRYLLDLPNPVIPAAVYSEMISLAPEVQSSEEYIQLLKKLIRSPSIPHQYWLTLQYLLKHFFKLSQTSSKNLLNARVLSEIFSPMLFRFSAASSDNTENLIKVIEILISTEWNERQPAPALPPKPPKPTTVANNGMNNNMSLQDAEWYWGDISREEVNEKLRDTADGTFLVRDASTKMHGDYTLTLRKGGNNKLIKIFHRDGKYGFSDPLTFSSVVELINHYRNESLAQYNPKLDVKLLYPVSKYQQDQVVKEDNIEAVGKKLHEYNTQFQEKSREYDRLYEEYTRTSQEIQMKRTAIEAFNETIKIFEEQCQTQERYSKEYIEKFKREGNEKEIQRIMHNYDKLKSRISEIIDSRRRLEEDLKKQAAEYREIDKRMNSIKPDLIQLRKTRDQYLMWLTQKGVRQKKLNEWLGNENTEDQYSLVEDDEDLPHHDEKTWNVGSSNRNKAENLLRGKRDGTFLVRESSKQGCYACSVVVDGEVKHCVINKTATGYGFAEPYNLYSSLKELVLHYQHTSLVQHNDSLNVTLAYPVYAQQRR

Legend:
PI3Kα = PI3Kα (Homo sapiens, UniProt P42336); test: ADP-Glo Kinase Assay, enzyme activity inhibition of PI3Kα; conditions: read-out: PI3Kα IC50, ATP 25µM, PIP2 50µg/mL, kinase PI3Kα 0.15µg/mL, room temperature 1 hour
Method: (§1) Effect Example IC50 of PI3Kα and PI3KαH1047R enzyme activity inhibition evaluation assay
(§2) The ADP-Glo Kinase Assay Kit was used for the experiments. The following buffer solutions were prepared: 50 mM HEPES, pH 7.5, 3 mM MgCl2, 1 mM EGTA, 100 mM NaCl, 0.03% CHAPS, 2 mM DTT. The tested compound samples were dissolved in DMSO and added to the screening system at a certain starting concentration of, for example, 10 µM, diluted 3-fold, while setting a DMSO control and an unkinase control. The optimal concentrations of PI3Kα, PI3Kα H1047R, substrate (PIP2) and ATP were prepared with buffers. The enzyme reaction system included: buffer, ATP 25µM, kinase substrate (PIP2, 50µg/mL), kinase PI3Kα (0.15µg/mL), PI3Kδ H1047R (0.05µg/mL), etc. The reaction system was reacted at room temperature for 1 hour, then terminated by adding a terminal reagent (ADP-Glo reagent, 5µL), and the ADP content in the system was detected using a detection reagent (Kinase Detection Reagent, 10µL). Signal data was collected using the Envision instrument. Calculated the % inhibition according to the following formula: % inhibition = (DMSO control signal value - sample signal value)/ (DMSO control signal value - unkinase control signal value). Inhibition curves were plotted using the formula Y=Bottom + (Top-Bottom)/(1+(IC50/X)^HillSlope) to obtain IC50 values and the results are as shown in Table 1.
(§3) Result + represents IC50 <= 250nM ++ represents 250 nM < IC50 < = 10µM +++ represents IC50 > 10 µM Table 1

PI3Kα H1047R = PI3Kα H1047R (Homo sapiens, UniProt P42336, H1047R); test: ADP-Glo Kinase Assay, enzyme activity inhibition of PI3Kα H1047R; conditions: read-out: PI3KαH1047R IC50, ATP 25µM, PIP2 50µg/mL, kinase 0.05µg/mL, room temperature 1 hour
Method: as §1, §2, §3

| Compound | IC50 (PI3Kα) [µM] | IC50 (PI3Kα H1047R) [µM] |
| --- | --- | --- |
| Cn1nc2c(-c3ccccc3C#N)cc(NC(=O)c3cc(F)cc(C(F)(F)F)c3)c3c2c1C(=O)N[C@@H]3c1cc(F)ccc1Cl | 0.25 to 10 | < 0.25 |
| Cn1nc2c(Cl)cc(NC(=O)c3cc(F)cc(C(F)(F)F)c3)c3c2c1C(=O)N[C@@H]3c1cc(Cl)c(F)cc1Cl | > 10 | < 0.25 |
| Cn1nc2c(-c3ccccc3C#N)cc(NC(=O)c3cc(F)cc(C(F)(F)F)c3)c3c2c1C(=O)N[C@H]3c1cc(F)ccc1Cl | > 10 | 0.25 to 10 |
| Cn1nc2c(Cl)cc(NC(=O)c3cc(F)cc(C(F)(F)F)c3)c3c2c1C(=O)N[C@H]3c1cc(Cl)c(F)cc1Cl | > 10 | 0.25 to 10 |

The match of structure and compound is tentative.
